The text below walks through data of doi:10.1101/2025.04.19.649674.

By UniProt entry, the sequences of proteins in these tests, tags left out.
UniProt O43353: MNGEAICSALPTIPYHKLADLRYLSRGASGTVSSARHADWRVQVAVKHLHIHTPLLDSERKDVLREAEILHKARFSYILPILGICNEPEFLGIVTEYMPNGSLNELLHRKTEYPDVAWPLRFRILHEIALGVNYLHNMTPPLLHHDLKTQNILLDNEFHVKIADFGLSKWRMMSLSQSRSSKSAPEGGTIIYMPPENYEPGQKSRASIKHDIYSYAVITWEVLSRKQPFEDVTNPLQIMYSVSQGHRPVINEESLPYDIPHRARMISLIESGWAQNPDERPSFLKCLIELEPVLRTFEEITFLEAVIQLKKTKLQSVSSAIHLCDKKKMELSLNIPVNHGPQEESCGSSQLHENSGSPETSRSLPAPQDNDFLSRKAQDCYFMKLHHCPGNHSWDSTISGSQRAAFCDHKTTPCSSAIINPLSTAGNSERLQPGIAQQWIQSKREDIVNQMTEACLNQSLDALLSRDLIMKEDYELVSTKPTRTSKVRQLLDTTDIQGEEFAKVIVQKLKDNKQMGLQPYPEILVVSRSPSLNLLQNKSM
UniProt Q8NF50: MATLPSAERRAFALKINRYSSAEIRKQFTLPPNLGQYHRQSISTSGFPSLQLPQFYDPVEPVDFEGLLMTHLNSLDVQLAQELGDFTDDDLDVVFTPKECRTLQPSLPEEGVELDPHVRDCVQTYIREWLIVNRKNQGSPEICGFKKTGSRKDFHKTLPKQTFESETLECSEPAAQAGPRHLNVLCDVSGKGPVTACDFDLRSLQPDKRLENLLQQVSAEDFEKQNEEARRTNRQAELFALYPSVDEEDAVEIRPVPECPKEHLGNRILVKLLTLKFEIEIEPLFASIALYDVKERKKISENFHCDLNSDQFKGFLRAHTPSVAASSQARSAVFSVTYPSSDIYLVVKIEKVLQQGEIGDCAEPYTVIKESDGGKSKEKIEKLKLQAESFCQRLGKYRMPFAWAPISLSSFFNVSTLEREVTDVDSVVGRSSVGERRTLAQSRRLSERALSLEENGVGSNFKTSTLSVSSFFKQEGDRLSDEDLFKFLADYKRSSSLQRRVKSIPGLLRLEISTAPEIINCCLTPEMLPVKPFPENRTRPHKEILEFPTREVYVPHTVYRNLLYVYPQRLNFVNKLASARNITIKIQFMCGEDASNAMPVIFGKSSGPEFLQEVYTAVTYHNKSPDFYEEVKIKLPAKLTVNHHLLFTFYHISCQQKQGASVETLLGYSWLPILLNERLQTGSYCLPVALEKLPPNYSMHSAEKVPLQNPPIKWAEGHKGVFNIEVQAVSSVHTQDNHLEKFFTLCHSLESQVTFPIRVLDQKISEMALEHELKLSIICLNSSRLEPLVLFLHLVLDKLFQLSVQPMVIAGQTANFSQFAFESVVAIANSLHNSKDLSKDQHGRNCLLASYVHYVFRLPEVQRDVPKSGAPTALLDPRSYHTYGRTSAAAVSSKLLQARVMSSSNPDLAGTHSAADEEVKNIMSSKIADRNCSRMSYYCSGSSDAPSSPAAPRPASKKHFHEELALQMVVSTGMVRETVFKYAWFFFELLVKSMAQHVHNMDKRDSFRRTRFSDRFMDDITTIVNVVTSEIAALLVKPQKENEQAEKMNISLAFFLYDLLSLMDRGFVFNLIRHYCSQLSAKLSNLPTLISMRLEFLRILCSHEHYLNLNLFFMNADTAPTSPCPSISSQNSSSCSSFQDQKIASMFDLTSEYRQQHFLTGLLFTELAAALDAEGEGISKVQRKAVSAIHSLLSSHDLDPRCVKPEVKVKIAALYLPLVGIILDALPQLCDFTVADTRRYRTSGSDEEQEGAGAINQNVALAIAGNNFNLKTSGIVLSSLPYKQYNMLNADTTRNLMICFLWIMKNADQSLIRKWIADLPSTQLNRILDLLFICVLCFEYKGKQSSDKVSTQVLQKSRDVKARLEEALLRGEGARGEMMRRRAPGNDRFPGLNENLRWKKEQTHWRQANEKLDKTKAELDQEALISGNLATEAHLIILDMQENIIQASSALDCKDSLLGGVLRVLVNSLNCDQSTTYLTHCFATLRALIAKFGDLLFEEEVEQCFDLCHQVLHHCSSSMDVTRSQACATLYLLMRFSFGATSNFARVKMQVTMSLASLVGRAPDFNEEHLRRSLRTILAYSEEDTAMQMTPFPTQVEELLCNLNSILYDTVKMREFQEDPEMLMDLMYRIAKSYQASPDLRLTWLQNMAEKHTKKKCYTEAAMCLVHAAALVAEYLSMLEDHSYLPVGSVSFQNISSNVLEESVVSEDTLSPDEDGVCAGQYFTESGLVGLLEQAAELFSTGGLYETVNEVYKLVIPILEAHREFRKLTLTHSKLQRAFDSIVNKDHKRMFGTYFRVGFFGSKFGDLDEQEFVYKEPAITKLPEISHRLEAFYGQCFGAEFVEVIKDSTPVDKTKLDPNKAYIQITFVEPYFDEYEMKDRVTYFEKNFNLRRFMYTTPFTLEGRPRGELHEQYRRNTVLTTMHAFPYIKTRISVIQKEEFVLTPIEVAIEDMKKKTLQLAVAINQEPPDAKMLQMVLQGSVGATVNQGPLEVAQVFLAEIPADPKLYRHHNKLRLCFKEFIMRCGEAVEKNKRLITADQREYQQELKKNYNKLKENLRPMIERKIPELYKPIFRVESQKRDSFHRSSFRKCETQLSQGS

The target of the assay is phosphorylated RIP2 (Ser 176), receptor-interacting protein 2 (human (endogenous in human platelets)) (UniProt O43353). Description: affinity purification with mass spectrometry.

Results are given in words; binding and its absence hold for the method and conditions named. In cells and extracts the contact can be indirect. A yes stands for co-enrichment or nearness to the bait. Other partners may have been found.

“DOCK8 (dedicator of cytogenesis protein 8) (from UniProt Q8NF50 1-2099)”: the binding result is given as “binds”.
